According to patent US20250172540A1, “Methods And Systems For Quantifying Partitioning Of Agents In Vivo Based On Partitioning Of Agents In Vitro” (Whitehead Institute for Biomedical Research, priority 2022, published 2025):

System: HCT-116 cells
Experiment: Live cell confocal / two-photon imaging of endogenously fluorescent drugs
Type: cell-based, Human
Details: live HCT-116 cells, 50 μM, 1 hour, confocal or two-photon imaging

SMILES | subcellular distribution of the drug's fluorescent signal
CC(C)c1ccc2oc3nc(N)c(C(=O)O)cc3c(=O)c2c1 [amlexanox] | concentrated predominantly in the cytoplasm
Nc1ccc2cc3ccc(N)cc3nc2c1 [proflavine] | concentrated almost exclusively in the nucleus
Cc1ccc(C(=O)Nc2ccc(S(=O)(=O)O)c3cc(S(=O)(=O)O)cc(S(=O)(=O)O)c23)cc1NC(=O)c1cccc(NC(=O)Nc2cccc(C(=O)Nc3cc(C(=O)Nc4ccc(S(=O)(=O)O)c5cc(S(=O)(=O)O)cc(S(=O)(=O)O)c45)ccc3C)c2)c1 [suramin] | concentrated predominantly in the cytoplasm
CC[C@@]1(O)C(=O)OCc2c1cc1n(c2=O)Cc2cc3ccccc3nc2-1 [camptothecin] | concentrated almost exclusively in the nucleus
COc1ccc2cc3[n+](cc2c1OC)CCc1cc2c(cc1-3)OCO2 [Berberine] | concentrated predominantly in mitochondria
Nc1nc(N)c2nc(-c3ccccc3)c(N)nc2n1 [triamterene] | concentrated predominantly in the cytoplasm
C[C@]1(O)C[C@@H](c2nc(-c3ccc4ccc(-c5ccccc5)nc4c3)c3c(N)nccn32)C1 [linsitinib] | concentrated predominantly in the cytoplasm
CC[C@@]1(O)C(=O)OCc2c1cc1n(c2=O)Cc2cc3c(CN(C)C)c(O)ccc3nc2-1 [topotecan] | concentrated almost exclusively in the nucleus; also recorded: much of its fluorescent signal occurred in the nucleus

Entries after “also recorded” stand apart in the source; their conditions may differ. Some entries repeat one wording, which the source may state once for all of them.
